According to publication PMC4974476, “Structural basis for LIN54 recognition of CHR elements in cell cycle-regulated promoters”:
These are yes or no findings as the source states them, for the method shown. In cells and extracts the contact can be indirect. Some binding calls cover weakened binding; strength is not graded here.

Protein sequences, listed by entry. Tags and fused reporters are not part of them. Lines headed by an entry give the natural chain unless they say otherwise; changes in a name come on top.
UniProt Q6MZP7, whole entry: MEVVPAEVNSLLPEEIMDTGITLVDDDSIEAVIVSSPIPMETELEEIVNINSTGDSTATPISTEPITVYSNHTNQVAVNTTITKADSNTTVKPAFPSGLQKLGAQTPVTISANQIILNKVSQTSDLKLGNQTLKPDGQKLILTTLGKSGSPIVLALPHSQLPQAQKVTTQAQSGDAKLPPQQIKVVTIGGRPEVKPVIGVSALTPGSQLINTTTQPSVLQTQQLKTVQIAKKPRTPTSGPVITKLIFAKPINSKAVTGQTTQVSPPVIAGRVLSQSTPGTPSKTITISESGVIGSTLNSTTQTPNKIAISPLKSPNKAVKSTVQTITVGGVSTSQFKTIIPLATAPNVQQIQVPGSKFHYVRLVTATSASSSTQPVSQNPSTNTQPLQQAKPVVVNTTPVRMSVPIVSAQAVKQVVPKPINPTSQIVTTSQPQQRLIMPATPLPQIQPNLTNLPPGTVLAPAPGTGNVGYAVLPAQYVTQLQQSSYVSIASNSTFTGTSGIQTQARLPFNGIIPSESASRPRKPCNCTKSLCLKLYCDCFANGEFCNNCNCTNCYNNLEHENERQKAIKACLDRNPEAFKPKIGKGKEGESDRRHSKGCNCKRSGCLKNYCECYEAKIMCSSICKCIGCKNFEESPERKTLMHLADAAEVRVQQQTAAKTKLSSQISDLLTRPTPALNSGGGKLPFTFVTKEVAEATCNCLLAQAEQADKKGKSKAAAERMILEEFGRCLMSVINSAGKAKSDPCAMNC
UniProt Q08999, whole entry: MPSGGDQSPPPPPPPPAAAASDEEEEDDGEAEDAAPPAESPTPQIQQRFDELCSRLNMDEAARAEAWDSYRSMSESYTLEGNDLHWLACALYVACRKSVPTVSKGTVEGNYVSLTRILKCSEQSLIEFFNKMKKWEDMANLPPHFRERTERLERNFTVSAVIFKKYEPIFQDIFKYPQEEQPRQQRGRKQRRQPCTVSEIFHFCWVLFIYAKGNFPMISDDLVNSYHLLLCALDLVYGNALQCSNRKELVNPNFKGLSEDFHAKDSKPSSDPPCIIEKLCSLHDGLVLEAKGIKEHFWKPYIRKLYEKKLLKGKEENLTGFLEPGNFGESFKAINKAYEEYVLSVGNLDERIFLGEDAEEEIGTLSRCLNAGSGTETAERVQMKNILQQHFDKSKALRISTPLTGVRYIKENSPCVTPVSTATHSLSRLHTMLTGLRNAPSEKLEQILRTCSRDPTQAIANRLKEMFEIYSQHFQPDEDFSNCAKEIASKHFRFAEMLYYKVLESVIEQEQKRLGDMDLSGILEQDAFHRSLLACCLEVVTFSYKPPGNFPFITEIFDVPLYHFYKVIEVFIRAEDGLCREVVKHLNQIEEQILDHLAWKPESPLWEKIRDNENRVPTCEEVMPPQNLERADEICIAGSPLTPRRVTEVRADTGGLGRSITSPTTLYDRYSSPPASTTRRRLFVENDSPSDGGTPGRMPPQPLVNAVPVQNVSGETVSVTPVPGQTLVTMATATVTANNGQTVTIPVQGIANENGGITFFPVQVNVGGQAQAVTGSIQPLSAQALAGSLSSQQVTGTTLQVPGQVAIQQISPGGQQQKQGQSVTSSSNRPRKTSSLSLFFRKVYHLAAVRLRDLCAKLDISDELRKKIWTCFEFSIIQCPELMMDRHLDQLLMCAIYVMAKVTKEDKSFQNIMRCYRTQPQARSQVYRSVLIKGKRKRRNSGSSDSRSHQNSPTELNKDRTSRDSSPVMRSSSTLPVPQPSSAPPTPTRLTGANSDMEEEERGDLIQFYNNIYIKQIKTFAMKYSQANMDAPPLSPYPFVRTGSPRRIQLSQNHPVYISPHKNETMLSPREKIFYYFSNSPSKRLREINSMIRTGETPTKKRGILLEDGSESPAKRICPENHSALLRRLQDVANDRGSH

Molecular target: V5-tagged wild-type LIN54 (human) (UniProt Q6MZP7)
Experiment: co-IP; T98G cells co-transfected with V5-LIN54 (wild type or mutant) and HA-p130; extracts in EBC lysis buffer (50 mM Tris HCl pH 7.4, 150 mM NaCl, 0.5% NP-40); immunoprecipitated with anti-V5 antibody; western blot for LIN9, LIN37, Myb, V5 and HA

Question: For “haemagglutinin (HA)-tagged wild-type p130 (from UniProt Q08999 1-1139)”, which binding is on record?
Answer: The binding was “binds”.
